Experimental data reported in patent US20220213201A1 (PHARMABCINE, published 2022).
Results are given in words; binding and its absence hold for the method and conditions named. Some entries that bind do so weakly or less than the wild type.

Chains of the proteins cited; added tags and fusions are not shown. Lines headed by an entry give the natural chain unless they say otherwise; changes in a name come on top. Residues count along the entry.
UniProt Q02763: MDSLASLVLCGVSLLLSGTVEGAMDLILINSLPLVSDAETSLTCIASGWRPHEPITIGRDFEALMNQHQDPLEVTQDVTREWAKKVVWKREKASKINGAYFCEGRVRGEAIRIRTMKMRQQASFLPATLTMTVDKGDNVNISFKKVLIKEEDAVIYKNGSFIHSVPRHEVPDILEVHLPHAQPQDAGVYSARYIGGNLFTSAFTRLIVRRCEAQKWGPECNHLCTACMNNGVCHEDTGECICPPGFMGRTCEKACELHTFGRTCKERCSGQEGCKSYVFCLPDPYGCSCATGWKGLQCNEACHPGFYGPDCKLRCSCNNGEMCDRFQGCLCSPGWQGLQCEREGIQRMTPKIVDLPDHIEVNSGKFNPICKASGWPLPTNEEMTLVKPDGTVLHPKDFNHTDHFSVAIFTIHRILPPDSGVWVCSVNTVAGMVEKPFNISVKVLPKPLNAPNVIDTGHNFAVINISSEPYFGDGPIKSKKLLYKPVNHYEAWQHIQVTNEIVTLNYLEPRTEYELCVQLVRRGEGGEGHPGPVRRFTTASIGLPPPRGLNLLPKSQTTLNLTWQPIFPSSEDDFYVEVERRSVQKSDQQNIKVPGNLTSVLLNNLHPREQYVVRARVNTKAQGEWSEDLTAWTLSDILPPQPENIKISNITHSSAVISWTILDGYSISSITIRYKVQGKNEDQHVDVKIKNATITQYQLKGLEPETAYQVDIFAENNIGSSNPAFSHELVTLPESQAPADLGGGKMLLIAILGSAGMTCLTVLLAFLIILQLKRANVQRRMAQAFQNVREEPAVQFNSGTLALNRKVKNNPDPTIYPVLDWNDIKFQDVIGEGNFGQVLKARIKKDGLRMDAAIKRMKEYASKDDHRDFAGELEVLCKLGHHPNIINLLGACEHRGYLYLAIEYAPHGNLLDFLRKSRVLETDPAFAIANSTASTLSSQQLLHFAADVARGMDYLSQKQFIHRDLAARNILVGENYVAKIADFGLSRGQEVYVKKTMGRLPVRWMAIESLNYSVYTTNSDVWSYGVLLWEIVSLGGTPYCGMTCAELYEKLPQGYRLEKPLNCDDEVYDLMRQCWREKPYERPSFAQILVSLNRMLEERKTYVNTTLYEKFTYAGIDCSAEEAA
human TIE2-his (Sino Biological, 10700-H08H): residues 23-745 of Q02763

Experiments:
[1] = molecular target: human TIE2-his (Sino Biological, 10700-H08H) (human) (UniProt Q02763); experiment: ELISA, purified IgG on coated hTIE2-his (1 µg/mL), HRP anti-human detection
[2] = molecular target: human TIE2-his (Sino Biological, 10700-H08H) (human) (UniProt Q02763); experiment: Octet (BLI), antibody fixed on the biosensor
[3] = molecular target: human TIE2-his (Sino Biological, 10700-H08H) (human) (UniProt Q02763); experiment: competitive ELISA on coated hTIE2, antibody at 2 ug/mL with ANG1 or ANG2 present
[4] = molecular target: human TIE2-his (Sino Biological, 10700-H08H) (human) (UniProt Q02763); experiment: ELISA, IgG on coated hTIE2-his
[5] = molecular target: T1, human TIE2 overexpressed on CHO-K1 cells (human, UniProt Q02763 23-1124); experiment: flow cytometry on hTIE2/CHO-K1, clones at 2 ug/mL, PE anti-human IgG-Fc detection
T1 construct: whole, on cells; also called hTIE2/CHO-K1; hTIE2 CHO-K1

[6] = molecular target: human TIE2-his (Sino Biological, 10700-H08H) (human) (UniProt Q02763); experiment: competitive ELISA on coated hTIE2: 2F2 at 2 µg/mL with ANG1 varied up to 50 µg/mL as competitor, bound antibody detected with HRP anti-human [panel 2F2 vs. ANG1]
[7] = molecular target: human TIE2-his (Sino Biological, 10700-H08H) (human) (UniProt Q02763); experiment: competitive ELISA on coated hTIE2: 2F2 at 2 µg/mL with ANG2 varied up to 50 µg/mL as competitor, bound antibody detected with HRP anti-human [panel 2F2 vs. ANG2]
[8] = molecular target: T1, human TIE2 overexpressed on CHO-K1 cells; experiment: flow cytometry on hTIE2/CHO-K1 cells, 2 µg/mL clone, PE anti-human IgG-Fc secondary
Protocol: In order to determine the binding to cell-expressing TIE2, the binding to the self-established human/mouse TIE2 overexpressing CHO-K1 cell lines (hTIE2/CHO-K1, mTIE2/CHO-K1) was measured using flow cytometry. Each cell line was maintained and cultured, hTIE2 CHO-K1 was washed with PBS, 5 mM EDTA was added thereto to obtain a cell suspension, and each cell was recovered through centrifugation. A cell suspension of 5×10⁶ cells/mL was prepared using FACS-dedicated buffer (PBS containing 2% FBS, 0.05% sodium azide), and 100 μL of the cell suspension was dispensed into each tube. 100 μL of 2 μg/mL clones was added to each test tube and allowed to stand at 4° C. for 30 minutes to induce cell binding. The cells were washed with 2 mL of FACS buffer, 100 μL of a secondary antibody dilution (1/500, PE-conjugated anti-human IgG-Fc polyclonal antibody fragment, *A80-248PE, Bethyl Laboratories Inc. US) was added thereto, and the resulting mixture was allowed to stand at 4° C. for 20 minutes to perform fluorescent labeling. The cells were washed with 2 mL of FACS buffer and then suspended in 200 μL of FACS buffer. […]

- binding [1]: binds
- binding [2]: binds
- binding [3]: binds
- binding [4]: binds
- binding [5]: binds
- binding [6]: binds
- binding [7]: binds
- binding [8]: binds
B1: anti-TIE2 antibody 2F2 (IgG) (antibody, V domains shown)
VH: QVQLVESGGGLVQPGGSLRLSCAASGFTFSSYAMTWVRQAPGKGLEWVSRISGSGGSTNYADSVKGRFTISRDNSKNTLYLQMNSLRAEDTAVYYCARGGLHHGFDIWGQGTMVTVSS
VL: SYELTQPPSLSVAPGKTARITCDGDNIESKSVHWYQQKPGQAPVLVIYYDNDRPSGIPERFSGSNSGNTATLTISRVEAGDEADYYCQVWDTYTDQPVFGGGTKLTVLG
notes: also called 2F2 clone
